Patent US20260243776A1, “A METHOD FOR DETECTING PROTEIN TARGETS OF AN ENZYME USING A BIOTIN LIGASE” (Leibniz-Institut für Alternsforschung - …, priority 2022, published 2026)
Results are given in words; binding and its absence hold for the method and conditions named. Some binding calls cover weakened binding; strength is not graded here.

Chains of the proteins cited; added tags and fusions are not shown. Residues count along the entry.
UniProt O43426: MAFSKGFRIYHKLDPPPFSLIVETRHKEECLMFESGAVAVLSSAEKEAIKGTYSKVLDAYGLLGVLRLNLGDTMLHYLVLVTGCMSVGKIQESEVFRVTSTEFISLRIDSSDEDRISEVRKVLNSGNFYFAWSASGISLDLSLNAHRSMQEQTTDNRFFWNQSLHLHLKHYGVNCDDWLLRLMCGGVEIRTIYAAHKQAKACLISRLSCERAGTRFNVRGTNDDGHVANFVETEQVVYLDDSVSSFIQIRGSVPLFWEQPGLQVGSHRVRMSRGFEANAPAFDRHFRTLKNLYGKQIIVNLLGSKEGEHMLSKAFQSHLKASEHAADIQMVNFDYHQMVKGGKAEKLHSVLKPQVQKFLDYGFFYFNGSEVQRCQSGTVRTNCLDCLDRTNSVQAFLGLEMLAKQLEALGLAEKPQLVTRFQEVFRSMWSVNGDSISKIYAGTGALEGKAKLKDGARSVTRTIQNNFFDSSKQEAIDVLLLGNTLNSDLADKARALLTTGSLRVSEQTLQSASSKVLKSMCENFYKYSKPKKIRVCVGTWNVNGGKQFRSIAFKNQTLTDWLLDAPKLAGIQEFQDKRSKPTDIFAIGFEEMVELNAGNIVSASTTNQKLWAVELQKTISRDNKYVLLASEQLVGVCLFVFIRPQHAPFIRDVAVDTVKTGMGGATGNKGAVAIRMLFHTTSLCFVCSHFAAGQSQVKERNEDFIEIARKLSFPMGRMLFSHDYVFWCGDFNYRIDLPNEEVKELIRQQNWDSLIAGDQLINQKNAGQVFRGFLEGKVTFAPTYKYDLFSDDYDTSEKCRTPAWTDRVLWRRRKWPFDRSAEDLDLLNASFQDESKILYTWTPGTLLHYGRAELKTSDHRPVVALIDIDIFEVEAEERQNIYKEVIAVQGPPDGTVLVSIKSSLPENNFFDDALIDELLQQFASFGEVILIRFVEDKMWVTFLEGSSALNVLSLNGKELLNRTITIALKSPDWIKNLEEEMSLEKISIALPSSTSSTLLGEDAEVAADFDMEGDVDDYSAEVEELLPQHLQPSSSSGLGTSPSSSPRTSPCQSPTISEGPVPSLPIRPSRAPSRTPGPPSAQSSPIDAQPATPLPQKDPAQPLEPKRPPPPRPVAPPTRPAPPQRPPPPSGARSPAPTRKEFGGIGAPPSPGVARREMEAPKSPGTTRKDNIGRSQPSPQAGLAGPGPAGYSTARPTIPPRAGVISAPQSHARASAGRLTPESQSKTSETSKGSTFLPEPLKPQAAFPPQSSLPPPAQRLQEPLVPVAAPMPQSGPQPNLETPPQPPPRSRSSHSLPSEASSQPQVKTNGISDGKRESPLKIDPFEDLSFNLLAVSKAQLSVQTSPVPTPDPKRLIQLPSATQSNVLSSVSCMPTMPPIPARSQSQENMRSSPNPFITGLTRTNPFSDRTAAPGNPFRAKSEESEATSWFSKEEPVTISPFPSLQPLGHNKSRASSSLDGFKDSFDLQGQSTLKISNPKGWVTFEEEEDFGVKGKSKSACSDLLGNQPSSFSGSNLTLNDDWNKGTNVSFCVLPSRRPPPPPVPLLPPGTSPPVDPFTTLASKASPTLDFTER
UniProt P32019, residues 1-990: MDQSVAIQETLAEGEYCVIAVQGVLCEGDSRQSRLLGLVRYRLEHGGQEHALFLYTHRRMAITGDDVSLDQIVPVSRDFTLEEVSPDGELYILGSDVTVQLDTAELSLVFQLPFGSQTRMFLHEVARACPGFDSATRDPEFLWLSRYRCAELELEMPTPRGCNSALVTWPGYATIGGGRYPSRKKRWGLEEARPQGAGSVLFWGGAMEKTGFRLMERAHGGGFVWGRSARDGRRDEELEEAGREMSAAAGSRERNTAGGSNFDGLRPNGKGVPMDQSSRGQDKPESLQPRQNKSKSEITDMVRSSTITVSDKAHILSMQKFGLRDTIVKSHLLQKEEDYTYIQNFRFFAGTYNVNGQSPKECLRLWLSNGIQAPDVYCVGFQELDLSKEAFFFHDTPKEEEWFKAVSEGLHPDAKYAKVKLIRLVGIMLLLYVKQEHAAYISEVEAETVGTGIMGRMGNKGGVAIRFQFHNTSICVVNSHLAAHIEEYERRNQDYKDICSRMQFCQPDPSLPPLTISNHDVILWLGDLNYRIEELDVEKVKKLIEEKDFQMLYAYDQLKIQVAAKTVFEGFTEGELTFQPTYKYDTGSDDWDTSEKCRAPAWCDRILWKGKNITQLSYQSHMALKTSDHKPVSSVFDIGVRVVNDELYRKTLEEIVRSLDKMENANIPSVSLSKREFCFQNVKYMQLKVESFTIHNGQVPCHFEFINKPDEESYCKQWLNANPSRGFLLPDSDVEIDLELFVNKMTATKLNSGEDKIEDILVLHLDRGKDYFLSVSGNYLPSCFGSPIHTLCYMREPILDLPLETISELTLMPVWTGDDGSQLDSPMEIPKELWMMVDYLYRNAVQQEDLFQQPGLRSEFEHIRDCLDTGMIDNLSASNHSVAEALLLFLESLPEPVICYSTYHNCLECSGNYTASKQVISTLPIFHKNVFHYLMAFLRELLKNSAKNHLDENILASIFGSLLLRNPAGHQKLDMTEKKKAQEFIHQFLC

Target: Synaptojanin 1 (SYNJ1) (human) (UniProt O43426)
Assay: BioID in HEK293T cells with BirA*-tagged SYNJ1 (which of the two fusions is not said)

**Q.** Which binding does the source give for “INPP5B (HEK293T cells) (from UniProt P32019 1-990) (enzyme)” here?
**A.** binds
